Test results as given in ChEMBL document CHEMBL1158972, “New cytotoxic beta-carboline alkaloids from the marine bryozoan, Cribricellina cribraria” (J Nat Prod, 1991).

Assays:
Pseudomonas aeruginosa = assay: Antimicrobial activity against Pseudomonas aeruginosa at 10 ug; assay type: functional, organism-based
Escherichia coli = assay: Antimicrobial activity against Escherichia coli at 10 ug; assay type: functional, organism-based

GENTAMICIN
inhibition zone (IZ) (Pseudomonas aeruginosa): 8 mm
inhibition zone (IZ) (Escherichia coli): 9 mm
